We go through two substances from publication PMC11641041.

Sequences of proteins named here, by UniProt entry; tags and fusion partners are left off.
UniProt Q01147: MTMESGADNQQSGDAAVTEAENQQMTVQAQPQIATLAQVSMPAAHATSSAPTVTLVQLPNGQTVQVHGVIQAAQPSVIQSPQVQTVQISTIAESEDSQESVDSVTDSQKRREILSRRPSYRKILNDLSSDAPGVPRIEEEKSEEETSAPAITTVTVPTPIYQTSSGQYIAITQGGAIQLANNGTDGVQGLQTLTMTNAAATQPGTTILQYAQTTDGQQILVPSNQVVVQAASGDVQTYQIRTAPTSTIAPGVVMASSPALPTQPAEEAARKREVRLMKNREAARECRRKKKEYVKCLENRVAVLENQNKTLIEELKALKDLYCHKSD
UniProt P15337: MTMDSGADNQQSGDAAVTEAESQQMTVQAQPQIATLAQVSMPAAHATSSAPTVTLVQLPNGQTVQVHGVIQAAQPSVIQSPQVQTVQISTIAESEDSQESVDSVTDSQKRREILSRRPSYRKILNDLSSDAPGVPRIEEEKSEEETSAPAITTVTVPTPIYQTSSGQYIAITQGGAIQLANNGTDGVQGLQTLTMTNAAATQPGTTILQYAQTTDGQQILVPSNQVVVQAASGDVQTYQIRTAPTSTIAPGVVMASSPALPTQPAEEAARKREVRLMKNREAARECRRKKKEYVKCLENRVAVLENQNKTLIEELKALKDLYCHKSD
UniProt P45481: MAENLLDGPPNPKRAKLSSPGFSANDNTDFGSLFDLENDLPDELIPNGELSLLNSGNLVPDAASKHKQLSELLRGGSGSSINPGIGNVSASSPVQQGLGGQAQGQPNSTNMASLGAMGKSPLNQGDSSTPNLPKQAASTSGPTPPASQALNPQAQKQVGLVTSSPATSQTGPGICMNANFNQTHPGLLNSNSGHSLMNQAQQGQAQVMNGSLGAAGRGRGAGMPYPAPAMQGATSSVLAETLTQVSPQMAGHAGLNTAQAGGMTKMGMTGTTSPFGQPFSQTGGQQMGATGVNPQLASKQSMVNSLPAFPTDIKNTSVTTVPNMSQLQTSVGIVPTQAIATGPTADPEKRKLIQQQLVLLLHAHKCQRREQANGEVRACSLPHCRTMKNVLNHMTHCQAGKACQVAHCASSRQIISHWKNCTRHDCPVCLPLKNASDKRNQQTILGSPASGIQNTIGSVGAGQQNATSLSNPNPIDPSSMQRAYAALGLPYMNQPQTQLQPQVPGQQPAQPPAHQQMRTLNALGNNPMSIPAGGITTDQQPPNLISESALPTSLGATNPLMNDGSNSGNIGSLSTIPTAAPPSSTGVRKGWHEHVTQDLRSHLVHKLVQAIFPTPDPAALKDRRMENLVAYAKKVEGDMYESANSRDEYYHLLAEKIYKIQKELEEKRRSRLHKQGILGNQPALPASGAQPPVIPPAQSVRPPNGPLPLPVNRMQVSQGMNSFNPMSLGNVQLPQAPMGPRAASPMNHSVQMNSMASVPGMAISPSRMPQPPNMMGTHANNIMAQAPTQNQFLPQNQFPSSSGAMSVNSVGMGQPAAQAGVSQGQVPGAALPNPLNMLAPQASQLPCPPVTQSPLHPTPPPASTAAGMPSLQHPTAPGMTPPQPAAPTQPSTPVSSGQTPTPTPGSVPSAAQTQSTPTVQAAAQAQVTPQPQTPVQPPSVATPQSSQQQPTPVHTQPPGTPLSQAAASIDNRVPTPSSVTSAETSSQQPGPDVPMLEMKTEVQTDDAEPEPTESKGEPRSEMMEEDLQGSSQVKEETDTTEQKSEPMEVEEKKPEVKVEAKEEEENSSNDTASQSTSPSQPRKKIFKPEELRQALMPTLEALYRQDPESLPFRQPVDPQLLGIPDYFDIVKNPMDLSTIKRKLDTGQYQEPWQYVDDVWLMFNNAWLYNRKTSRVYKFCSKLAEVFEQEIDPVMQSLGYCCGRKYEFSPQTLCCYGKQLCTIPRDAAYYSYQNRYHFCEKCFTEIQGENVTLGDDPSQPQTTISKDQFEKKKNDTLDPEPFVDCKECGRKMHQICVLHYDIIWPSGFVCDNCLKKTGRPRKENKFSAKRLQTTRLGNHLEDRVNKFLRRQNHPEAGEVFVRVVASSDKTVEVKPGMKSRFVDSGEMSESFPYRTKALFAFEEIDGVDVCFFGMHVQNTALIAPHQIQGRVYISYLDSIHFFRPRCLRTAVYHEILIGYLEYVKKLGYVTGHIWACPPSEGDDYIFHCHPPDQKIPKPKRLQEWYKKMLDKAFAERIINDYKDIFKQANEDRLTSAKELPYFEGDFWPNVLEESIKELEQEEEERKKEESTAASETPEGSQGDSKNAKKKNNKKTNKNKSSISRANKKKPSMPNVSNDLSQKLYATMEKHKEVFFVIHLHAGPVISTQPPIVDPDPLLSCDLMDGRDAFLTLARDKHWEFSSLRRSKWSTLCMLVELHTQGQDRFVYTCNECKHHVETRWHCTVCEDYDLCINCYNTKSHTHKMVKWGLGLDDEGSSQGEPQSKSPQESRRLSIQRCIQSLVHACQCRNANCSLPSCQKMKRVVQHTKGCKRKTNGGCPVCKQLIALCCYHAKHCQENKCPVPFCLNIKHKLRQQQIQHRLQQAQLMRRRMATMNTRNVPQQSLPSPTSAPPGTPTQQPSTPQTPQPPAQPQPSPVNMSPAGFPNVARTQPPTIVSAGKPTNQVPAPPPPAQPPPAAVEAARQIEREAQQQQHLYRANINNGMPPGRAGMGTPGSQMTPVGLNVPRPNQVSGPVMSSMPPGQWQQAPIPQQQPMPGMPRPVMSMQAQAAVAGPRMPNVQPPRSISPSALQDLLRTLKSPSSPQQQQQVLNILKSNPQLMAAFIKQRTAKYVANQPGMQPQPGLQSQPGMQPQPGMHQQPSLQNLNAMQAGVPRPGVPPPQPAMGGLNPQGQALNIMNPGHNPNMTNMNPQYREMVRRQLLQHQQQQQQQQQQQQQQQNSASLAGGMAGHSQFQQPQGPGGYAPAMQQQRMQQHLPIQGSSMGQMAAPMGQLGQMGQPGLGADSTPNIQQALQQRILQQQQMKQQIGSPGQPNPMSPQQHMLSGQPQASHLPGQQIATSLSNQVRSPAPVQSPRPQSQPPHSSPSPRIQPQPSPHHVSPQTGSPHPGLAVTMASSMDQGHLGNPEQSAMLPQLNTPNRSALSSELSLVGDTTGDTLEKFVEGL
UniProt Q6JHU9: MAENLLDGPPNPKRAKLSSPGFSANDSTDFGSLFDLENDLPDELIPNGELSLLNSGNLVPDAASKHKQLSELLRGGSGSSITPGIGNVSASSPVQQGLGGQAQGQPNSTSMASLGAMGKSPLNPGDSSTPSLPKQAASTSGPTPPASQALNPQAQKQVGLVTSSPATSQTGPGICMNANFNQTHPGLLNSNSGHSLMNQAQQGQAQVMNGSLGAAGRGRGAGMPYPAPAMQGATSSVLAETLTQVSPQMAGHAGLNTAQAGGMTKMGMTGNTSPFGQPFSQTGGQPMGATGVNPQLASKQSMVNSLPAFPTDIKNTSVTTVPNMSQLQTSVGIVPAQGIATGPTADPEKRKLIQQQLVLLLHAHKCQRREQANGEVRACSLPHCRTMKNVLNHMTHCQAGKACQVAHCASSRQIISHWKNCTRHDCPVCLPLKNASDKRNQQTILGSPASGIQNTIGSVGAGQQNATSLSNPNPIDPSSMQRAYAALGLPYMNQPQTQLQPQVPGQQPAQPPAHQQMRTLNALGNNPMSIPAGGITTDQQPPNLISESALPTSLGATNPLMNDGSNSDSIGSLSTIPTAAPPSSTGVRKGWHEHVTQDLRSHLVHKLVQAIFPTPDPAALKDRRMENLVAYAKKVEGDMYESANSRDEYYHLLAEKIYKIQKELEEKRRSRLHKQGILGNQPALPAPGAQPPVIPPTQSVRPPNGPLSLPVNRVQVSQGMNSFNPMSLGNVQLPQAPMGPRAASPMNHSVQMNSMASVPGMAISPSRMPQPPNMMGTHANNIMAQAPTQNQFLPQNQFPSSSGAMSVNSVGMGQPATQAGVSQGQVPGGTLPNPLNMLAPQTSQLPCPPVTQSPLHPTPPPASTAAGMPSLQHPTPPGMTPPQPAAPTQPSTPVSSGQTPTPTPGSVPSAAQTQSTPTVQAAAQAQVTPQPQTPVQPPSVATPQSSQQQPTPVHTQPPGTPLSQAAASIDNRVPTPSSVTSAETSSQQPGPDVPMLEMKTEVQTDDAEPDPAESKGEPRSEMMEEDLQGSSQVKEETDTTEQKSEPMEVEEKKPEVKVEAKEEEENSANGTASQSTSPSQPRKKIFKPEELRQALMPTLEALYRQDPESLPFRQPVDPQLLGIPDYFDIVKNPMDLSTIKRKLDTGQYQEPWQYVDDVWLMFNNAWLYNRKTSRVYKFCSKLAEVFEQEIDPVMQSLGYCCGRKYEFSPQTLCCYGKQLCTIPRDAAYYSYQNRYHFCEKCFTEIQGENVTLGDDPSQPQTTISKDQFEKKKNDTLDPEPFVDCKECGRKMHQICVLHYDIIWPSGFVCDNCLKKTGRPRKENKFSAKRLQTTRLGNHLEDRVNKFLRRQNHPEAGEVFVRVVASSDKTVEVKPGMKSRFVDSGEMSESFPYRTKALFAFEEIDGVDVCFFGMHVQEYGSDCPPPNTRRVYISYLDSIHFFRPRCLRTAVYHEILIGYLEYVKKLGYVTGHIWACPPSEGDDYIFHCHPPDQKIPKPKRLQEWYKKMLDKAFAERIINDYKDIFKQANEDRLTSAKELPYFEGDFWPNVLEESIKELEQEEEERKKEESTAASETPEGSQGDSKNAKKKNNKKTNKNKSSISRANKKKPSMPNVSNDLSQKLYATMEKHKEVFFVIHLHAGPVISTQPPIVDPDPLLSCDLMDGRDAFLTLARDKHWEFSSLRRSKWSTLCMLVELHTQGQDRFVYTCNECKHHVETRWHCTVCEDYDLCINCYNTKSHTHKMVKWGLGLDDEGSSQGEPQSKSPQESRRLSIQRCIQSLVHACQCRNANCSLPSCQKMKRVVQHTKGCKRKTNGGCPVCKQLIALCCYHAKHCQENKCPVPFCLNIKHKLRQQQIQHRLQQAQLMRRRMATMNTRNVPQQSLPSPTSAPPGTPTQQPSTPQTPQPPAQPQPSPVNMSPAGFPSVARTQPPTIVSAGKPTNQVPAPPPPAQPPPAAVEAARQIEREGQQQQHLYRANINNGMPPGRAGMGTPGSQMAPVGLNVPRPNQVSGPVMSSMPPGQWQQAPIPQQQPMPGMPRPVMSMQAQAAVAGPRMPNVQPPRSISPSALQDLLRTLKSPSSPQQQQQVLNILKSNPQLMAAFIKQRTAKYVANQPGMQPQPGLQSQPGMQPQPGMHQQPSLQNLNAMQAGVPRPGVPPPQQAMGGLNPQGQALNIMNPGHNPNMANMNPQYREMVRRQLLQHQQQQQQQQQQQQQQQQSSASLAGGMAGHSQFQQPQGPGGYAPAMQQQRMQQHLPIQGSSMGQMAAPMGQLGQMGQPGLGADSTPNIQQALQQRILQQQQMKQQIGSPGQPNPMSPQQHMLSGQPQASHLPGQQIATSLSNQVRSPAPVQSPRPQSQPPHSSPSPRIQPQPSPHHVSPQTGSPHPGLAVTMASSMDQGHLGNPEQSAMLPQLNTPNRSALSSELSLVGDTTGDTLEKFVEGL

No constants are given. Whether binding was seen depends on the method and setting. In cells and extracts the contact can be indirect. Some entries that bind do so weakly or less than the wild type.

The target in assay [1] is phosphorylated cAMP response element-binding protein (AtT-20 cells) (mouse (endogenous in AtT-20)) (UniProt Q01147). In words: co-IP; anti-p-CREB antibody on Protein A/G magnetic beads, 4 °C for 16 h, lysates of MMQ and AtT-20 cells (IP lysis buffer with phosphatase inhibitors); cells treated with BRC (10 μM) or CAB (25 μM) for 48 h; Western blot for CBP and p300. (In general: A western blot detects proteins with antibodies after separation by electrophoresis.)

The target of assay [2] is phosphorylated cAMP response element-binding protein (MMQ cells) (rat (endogenous in MMQ)) (UniProt P15337). The assay is described as above.

Take “CREB-binding protein (AtT-20 cells) (from UniProt P45481 1-2441)”: in assay [1], the binding entry was “binds”.

Regarding “CREB-binding protein (MMQ cells) (from UniProt Q6JHU9 1-2442)”, the binding result in assay [2] is given as “binds”.
